Taken from: PubChem BioAssay AID652272 (Drosophila RNAi Screening Center, 2013)
The screen tested about 21,000 reagents; this is a random part of those with a known target gene and a result. In the full data, 503 (2.4%) are marked active. 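Raw plate light values, not normalised; calls rest on replicate z-scores that were not deposited; hits include reporter decreases as well as increases.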 A plus sign joins genes that one reagent is predicted to hit. No sequences are given here. Not given: the amount of reagent, the time to read-out.

Purpose: 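Genes whose knock-down decreases or increases Hedgehog reporter output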 (primary screen)
Cells: Drosophila clone 8 (Cl8) cells
Knock-down reagent: long dsRNA against Drosophila genes
Detection: 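Plate reader light from a firefly reporter under a ptc promoter fragment that responds to Hedgehog, with Renilla light as transfection reference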
Direction: firefly Hh reporter signal: higher = more ptc reporter light; Renilla reference signal: higher = more Renilla control light
Active means: 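Called a hit if the two-replicate mean z-score lies below -2 or above +3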
Meaning of the calls: active = hit: reporter lowered or raised; inactive = not a hit

| target gene | dsRNA | firefly Hh reporter signal, replicate 1 | firefly Hh reporter signal, replicate 2 | firefly Hh reporter signal, replicate 3 | Renilla reference signal, replicate 1 | Renilla reference signal, replicate 2 | activity call |
| --- | --- | --- | --- | --- | --- | --- | --- |
| Tsp42Ed (Tetraspanin 42Ed) | DRSC05940 | 1.04e5 | 54600 | – | 2515 | 4754 | inactive |
| Spase22-23 (Spase 22/23-subunit) | DRSC15857 | 4.49e5 | 92610 | – | 27795 | 3507 | inactive |
| CG9784 | DRSC20210 | 79456 | 1.73e5 | – | 3036 | 7269 | inactive |
| CAH13 (Carbonic anhydrase 13) | DRSC06128 | 87401 | 61320 | – | 2294 | 5221 | inactive |
| CG14408 | DRSC19595 | 1.10e5 | 64135 | – | 2645 | 1808 | inactive |
| CG14965 | DRSC08424 | 1.21e5 | 75757 | – | 5456 | 3168 | inactive |
| Prim1 (DNA primase subunit 1) | DRSC11137 | 43429 | 43603 | – | 5216 | 4077 | inactive |
| ple (pale) | DRSC11383 | 29769 | 29589 | – | 4520 | 2677 | inactive |
| CG15545 | DRSC15083 | 74032 | 1.66e5 | – | 1863 | 6936 | inactive |
| lncRNA:CR43337 (long non-coding RNA:CR43337) | DRSC07893 | 1.35e5 | 2.67e5 | – | 3288 | 11146 | inactive |
| CG34325 | DRSC19802 | 84341 | 2.56e5 | – | 1985 | 10955 | inactive |
| CG34325 | DRSC20200 | 91010 | 2.23e5 | – | 2402 | 9648 | inactive |
| CG9521 | DRSC20196 | 77368 | 1.57e5 | – | 2456 | 6694 | inactive |
| mRpL13 (mitochondrial ribosomal protein L13) | DRSC02076 | 91974 | 86928 | – | 2522 | 6635 | inactive |
| mib1 (mind bomb 1) | DRSC10550 | 1.11e5 | – | – | 2071 | 3420 | inactive |
| YME1L (YME1 like ATPase) | DRSC04378 | 1.03e5 | 39280 | – | 4013 | 1545 | inactive |
| CG34049 | DRSC00104 | 5.06e5 | 1.54e5 | – | 24800 | 6123 | inactive |
| Mal-A7 (Maltase A7) | DRSC06077 | 77826 | 42576 | – | 1651 | 3808 | inactive |
| Muc12Ea (Mucin 12Ea) | DRSC19937 | 1.29e5 | 7.62e5 | 3.40e5 | 3965 | 1914 | inactive |
| CG40006 | DRSC03787 | 1.28e5 | 2.25e5 | – | 3587 | 9927 | inactive |
| CG40006 | DRSC03809 | 1.46e5 | 2.55e5 | – | 4338 | 13190 | inactive |
| CG40006 | DRSC03814 | 1.43e5 | 2.24e5 | – | 3872 | 9273 | inactive |
| CG40006 | DRSC03817 | 1.36e5 | 2.58e5 | – | 3874 | 11133 | inactive |
| wun (wunen) | DRSC07719 | 89344 | 53430 | – | 3645 | 2224 | inactive |
| CG3348 | DRSC15480 | 78316 | 1.20e5 | – | 2724 | 3926 | inactive |
| pon (partner of numb) | DRSC18823 | 71168 | 1.88e5 | – | 2361 | 6978 | inactive |
| AMPKalpha (AMP-activated protein kinase alpha subunit) | DRSC18714 | 89641 | 1.26e5 | – | 552 | 2979 | inactive |
| scramb1 (scramblase 1) | DRSC09724 | 48184 | 88838 | 56882 | 7206 | 3472 | inactive |
| scramb1 (scramblase 1) | DRSC10667 | 59081 | 75301 | 71192 | 6660 | 4259 | inactive |
| scramb1 (scramblase 1) | DRSC10668 | 48952 | 61061 | 50584 | 5181 | 3424 | inactive |
| icln | DRSC07630 | 83283 | 43232 | – | 2262 | 3368 | inactive |
| Ser (Serrate) | DRSC16856 | 1.12e5 | 1.19e5 | – | 3654 | 2844 | inactive |
| Gr32a (Gustatory receptor 32a) | DRSC02400 | 1.28e5 | 90951 | – | 4035 | 7418 | inactive |
| l(1)sc (lethal of scute) | DRSC18789 | 70553 | 1.92e5 | – | 1717 | 7717 | inactive |
| CG5819 | DRSC04520 | 1.21e5 | 54885 | – | 2972 | 2220 | inactive |
| CG4935 | DRSC01924 | 92541 | 77558 | – | 2471 | 5488 | inactive |
| Vps35 (Vacuolar protein sorting 35) | DRSC04519 | 64436 | 63800 | – | 2624 | 2573 | inactive |
| CG33465 | DRSC05587 | 1.15e5 | 2.05e5 | – | 2908 | 9290 | inactive |
| CG12069 | DRSC14470 | 75532 | 1.08e5 | – | 2362 | 2793 | inactive |
| Unc-115b + p24-2 | DRSC16492 | 1.03e5 | 64116 | – | 4209 | 2333 | inactive |
| CG42331 | DRSC14633 | 5.28e5 | 72768 | – | 2210 | 2210 | inactive |
| CG42331 | DRSC16126 | 5.84e5 | 1.22e5 | – | 30961 | 3908 | inactive |
| CG5727 | DRSC02882 | 1.18e5 | 70922 | – | 5189 | 3149 | inactive |
| CG12974 | DRSC11684 | 1.34e5 | 1.28e5 | – | 4467 | 3488 | inactive |
| CG10764 | DRSC06000 | 1.09e5 | 77402 | – | 6080 | 3756 | inactive |
| Tango6 (Transport and Golgi organization 6) | DRSC02671 | 42379 | 63417 | – | 2034 | 2640 | inactive |
| D2hgdh (D-2-hydroxyglutaric acid dehydrogenase) | DRSC18577 | 1.78e5 | 1.11e5 | – | 3884 | 3712 | inactive |
| Obp56c (Odorant-binding protein 56c) | DRSC06552 | 1.66e5 | 6.63e5 | 90007 | 4420 | 36154 | inactive |
| scrib (scribble) | DRSC13774 | 48341 | 1.80e5 | – | 12897 | 4812 | inactive |
| scrib (scribble) | DRSC13775 | 50900 | 1.48e5 | – | 13953 | 4295 | inactive |
| scrib (scribble) | DRSC15809 | 68934 | 74345 | – | 2112 | 2609 | inactive |
| scrib (scribble) | DRSC17051 | 81938 | 98658 | – | 1819 | 2236 | inactive |
| amrt (amaretto) | DRSC19378 | 92537 | 1.49e5 | – | 3500 | 7040 | inactive |
| WRNexo (WRN exonuclease) | DRSC16278 | 1.30e5 | 1.26e5 | – | 4928 | 4749 | inactive |
| Ehbp1 (Eps15 homology domain containing protein-binding protein 1) | DRSC06561 | 1.29e5 | 86069 | – | 5161 | 3082 | inactive |
| CG32829 | DRSC00961 | 9.28e5 | 9.26e5 | 3.55e5 | 52736 | 3094 | inactive |
| mtd (mustard) | DRSC12131 | 1.62e5 | 1.18e5 | – | 6000 | 4969 | inactive |
| mtd (mustard) | DRSC12380 | 99195 | 1.18e5 | – | 4857 | 4859 | inactive |
| mtd (mustard) | DRSC12381 | 93824 | 1.80e5 | – | 3076 | 4832 | inactive |
